Results reported in patent publication US11214540B2, “Compositions for treating neurodegenerative diseases” (COGNITION THERAPEUTICS, INC., priority 2017, dated 2022).

Sequences of proteins named here, by UniProt entry; tags and fusion partners are left off.
UniProt Q99720, whole entry: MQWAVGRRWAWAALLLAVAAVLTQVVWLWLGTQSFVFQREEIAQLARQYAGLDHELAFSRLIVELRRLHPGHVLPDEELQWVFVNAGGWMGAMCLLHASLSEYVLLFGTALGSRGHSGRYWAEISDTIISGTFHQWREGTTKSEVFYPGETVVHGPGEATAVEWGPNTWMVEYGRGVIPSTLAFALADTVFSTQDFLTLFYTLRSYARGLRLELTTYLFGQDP

Target: Sigma-1 receptors on Jurkat cell membranes (Homo sapiens (Human), UniProt Q99720)
Test: Competitive Radioligand Binding Assay 1, Sigma-1 binding ([3H](+)pentazocine displacement)
Conditions: read-out: S1 Ki; sigma-1 receptor affinity

CC(C)=CC(CC(C)(C)c1ccc(Cl)cc1)N1CCC(C2CCOCC2)CC1 (stereo not shown) [Compound 11]
Ki: 14 nM and 69 nM

Not every entry of the source has a single result; some have several. The other results are left out here. An entry can have further records. The records of an entry read as repeated measurements (runs, samples, wells or individuals).
